Experimental data as given in patent publication US7163799B2, “Neuromedin U receptor NMUR2 and nucleotides encoding it” (Merck & Co., Inc., priority 2000, dated 2007).
Where no end group is shown, it is not given here.

System: rats
Assay: Core body temperature and gross motor activity in rats (radio transmitter) after ICV administration
Type: in vivo, rat
Conditions: for change in gross motor activity: measured 24 hours, compared to pre-treatment

YKVNEYQGPVAPSGGFFLFRPRN-NH2 [NMU]
change in gross motor activity (1 μg ICV): increased only in the first hour post-dosing | core temperature change (3 μg ICV): transient increase in core temperature | duration of core temperature increase (3 μg ICV): approximately one hour | start of core temperature increase post-dosing (3 μg ICV): about 40 min | change in gross motor activity (3 μg ICV): increased only in the first hour post-dosing
